This is an account of results in patent US20240408135A1.

Assay [1] concerns the target T1, B7-H3 on human CD3+ T cells (human) (UniProt Q5ZPR3).
T1 sequence (looked up): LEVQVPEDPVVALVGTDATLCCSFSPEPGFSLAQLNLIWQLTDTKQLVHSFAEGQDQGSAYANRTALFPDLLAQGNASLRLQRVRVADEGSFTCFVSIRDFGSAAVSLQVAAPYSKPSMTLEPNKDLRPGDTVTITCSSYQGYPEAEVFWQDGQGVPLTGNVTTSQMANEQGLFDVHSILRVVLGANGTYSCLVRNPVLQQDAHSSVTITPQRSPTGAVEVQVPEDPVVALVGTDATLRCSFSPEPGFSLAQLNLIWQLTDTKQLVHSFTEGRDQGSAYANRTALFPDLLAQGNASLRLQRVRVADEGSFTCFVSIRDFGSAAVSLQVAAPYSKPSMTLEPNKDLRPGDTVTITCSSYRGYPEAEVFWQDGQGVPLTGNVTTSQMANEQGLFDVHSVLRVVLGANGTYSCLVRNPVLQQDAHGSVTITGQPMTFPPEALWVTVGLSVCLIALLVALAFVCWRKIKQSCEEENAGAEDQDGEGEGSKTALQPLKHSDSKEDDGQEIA
Briefly: flow cytometry on human T cells from a mixed lymphocyte reaction.

Assay [2] has as its target T1, B7-H3 on human CD3+ T cells (human). Briefly: flow cytometry on human CD3+ T cells (peripheral and liver-infiltrating) from humanized NSG mice.

No constants are given. Whether binding was seen depends on the method and setting. Some binding calls cover weakened binding; strength is not graded here.

B1: B7-H3-specific mAb 376.96 (antibody, V domains shown)
VH: EVQLVESGGGLVKPGGSLKLSCEASRFTFSSYAMSWVRQTPEKRLEWVAAISGGGRYTYYPDSMKGRFTISRDNAKNFLYLQMSSLRSEDTAMYYCARHYDGYLDYWGQGTTLTVSS
VL: DIVMTQSHKFMSTSIGARVSITCKASQDVRTAVAWYQQKPGQSPKLLIYSASYRYTGVPDRFTGSGSGTDFTFTISSVQAEDLAVYYCQQHYGTPPWTFGGGTKLEIK
As to B1, the binding result in assay [1] and in assay [2] was “binds” throughout.
